{"source": "PubChem BioAssay AID1508597 – Cure First – 2020", "aim": "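Knock-downs altering ovarian cancer cell survival with or without PARP inhibitor rucaparib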 (primary screen)", "system": "human ovarian carcinoma lines grown from tumours: OCI-P5x (papillary serous) and OCI-C5x (clear cell)", "reagents": "siRNA pool against human genes, 1.25 pmol siRNA per well", "timing": "72 h or 96 h, depending on the cell culture", "conditions": "rucaparib 20 µM (about IC30) or vehicle, present until read-out", "measured": "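ATP luminescence measured at 72 or 96 h according to the culture, then normalised and expressed as percent viability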", "direction": "viability, normalised: higher = more viable cells remaining", "hit rule": "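Active when normalised viability falls below 80 percent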", "meaning of the calls": "active = viability under 80%; inactive = viability 80% or more", "note": "This is an unselected part of about 2,100 reagents tested. 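Calls flag viability under 80% in either arm, not effects specific to rucaparib; the reference for percent is not stated.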 No sequences are given here. Not given: the 100% reference."}
{"Target gene":"TYMS","rucaparib or vehicle":"Rucaparib","cell line":"OCI-C5x (clear cell)","technical replicate":"1","viability, normalised (%)":63.9,"activity call":"active"}
{"Target gene":"TYMS","rucaparib or vehicle":"Rucaparib","cell line":"OCI-C5x (clear cell)","technical replicate":"2","viability, normalised (%)":65.1,"activity call":"active"}
{"Target gene":"TYMS","rucaparib or vehicle":"Rucaparib","cell line":"OCI-C5x (clear cell)","technical replicate":"3","viability, normalised (%)":68.9,"activity call":"active"}
{"Target gene":"TYMS","rucaparib or vehicle":"Rucaparib","cell line":"OCI-P5x (serous)","technical replicate":"1","viability, normalised (%)":111,"activity call":"inactive"}
{"Target gene":"TYMS","rucaparib or vehicle":"Rucaparib","cell line":"OCI-P5x (serous)","technical replicate":"2","viability, normalised (%)":98,"activity call":"inactive"}
{"Target gene":"TYMS","rucaparib or vehicle":"Rucaparib","cell line":"OCI-P5x (serous)","technical replicate":"3","viability, normalised (%)":116,"activity call":"inactive"}
{"Target gene":"TYMS","rucaparib or vehicle":"Vehicle","cell line":"OCI-C5x (clear cell)","technical replicate":"1","viability, normalised (%)":34.6,"activity call":"active"}
{"Target gene":"TYMS","rucaparib or vehicle":"Vehicle","cell line":"OCI-C5x (clear cell)","technical replicate":"2","viability, normalised (%)":31.4,"activity call":"active"}
{"Target gene":"TYMS","rucaparib or vehicle":"Vehicle","cell line":"OCI-C5x (clear cell)","technical replicate":"3","viability, normalised (%)":39.7,"activity call":"active"}
{"Target gene":"TYMS","rucaparib or vehicle":"Vehicle","cell line":"OCI-P5x (serous)","technical replicate":"1","viability, normalised (%)":83,"activity call":"inactive"}
{"Target gene":"TYMS","rucaparib or vehicle":"Vehicle","cell line":"OCI-P5x (serous)","technical replicate":"2","viability, normalised (%)":87.2,"activity call":"inactive"}
{"Target gene":"TYMS","rucaparib or vehicle":"Vehicle","cell line":"OCI-P5x (serous)","technical replicate":"3","viability, normalised (%)":115,"activity call":"inactive"}
{"Target gene":"SOX9","rucaparib or vehicle":"Rucaparib","cell line":"OCI-C5x (clear cell)","technical replicate":"1","viability, normalised (%)":60.9,"activity call":"active"}
{"Target gene":"SOX9","rucaparib or vehicle":"Rucaparib","cell line":"OCI-C5x (clear cell)","technical replicate":"2","viability, normalised (%)":53.2,"activity call":"active"}
{"Target gene":"SOX9","rucaparib or vehicle":"Rucaparib","cell line":"OCI-C5x (clear cell)","technical replicate":"3","viability, normalised (%)":50.2,"activity call":"active"}
{"Target gene":"SOX9","rucaparib or vehicle":"Rucaparib","cell line":"OCI-P5x (serous)","technical replicate":"1","viability, normalised (%)":69,"activity call":"active"}
{"Target gene":"SOX9","rucaparib or vehicle":"Rucaparib","cell line":"OCI-P5x (serous)","technical replicate":"2","viability, normalised (%)":85.3,"activity call":"inactive"}
{"Target gene":"SOX9","rucaparib or vehicle":"Rucaparib","cell line":"OCI-P5x (serous)","technical replicate":"3","viability, normalised (%)":75.8,"activity call":"active"}
{"Target gene":"SOX9","rucaparib or vehicle":"Vehicle","cell line":"OCI-C5x (clear cell)","technical replicate":"1","viability, normalised (%)":58.2,"activity call":"active"}
{"Target gene":"SOX9","rucaparib or vehicle":"Vehicle","cell line":"OCI-C5x (clear cell)","technical replicate":"2","viability, normalised (%)":55.4,"activity call":"active"}
{"Target gene":"SOX9","rucaparib or vehicle":"Vehicle","cell line":"OCI-C5x (clear cell)","technical replicate":"3","viability, normalised (%)":58.2,"activity call":"active"}
{"Target gene":"SOX9","rucaparib or vehicle":"Vehicle","cell line":"OCI-P5x (serous)","technical replicate":"1","viability, normalised (%)":58.5,"activity call":"active"}
{"Target gene":"SOX9","rucaparib or vehicle":"Vehicle","cell line":"OCI-P5x (serous)","technical replicate":"2","viability, normalised (%)":48,"activity call":"active"}
{"Target gene":"SOX9","rucaparib or vehicle":"Vehicle","cell line":"OCI-P5x (serous)","technical replicate":"3","viability, normalised (%)":69.4,"activity call":"active"}
{"Target gene":"TRPM7","rucaparib or vehicle":"Rucaparib","cell line":"OCI-C5x (clear cell)","technical replicate":"1","viability, normalised (%)":59.5,"activity call":"active"}
{"Target gene":"TRPM7","rucaparib or vehicle":"Rucaparib","cell line":"OCI-C5x (clear cell)","technical replicate":"2","viability, normalised (%)":56.6,"activity call":"active"}
{"Target gene":"TRPM7","rucaparib or vehicle":"Rucaparib","cell line":"OCI-C5x (clear cell)","technical replicate":"3","viability, normalised (%)":72.3,"activity call":"active"}
{"Target gene":"TRPM7","rucaparib or vehicle":"Rucaparib","cell line":"OCI-P5x (serous)","technical replicate":"1","viability, normalised (%)":96.9,"activity call":"inactive"}
{"Target gene":"TRPM7","rucaparib or vehicle":"Rucaparib","cell line":"OCI-P5x (serous)","technical replicate":"2","viability, normalised (%)":91.2,"activity call":"inactive"}
{"Target gene":"TRPM7","rucaparib or vehicle":"Rucaparib","cell line":"OCI-P5x (serous)","technical replicate":"3","viability, normalised (%)":75.1,"activity call":"active"}
{"Target gene":"TRPM7","rucaparib or vehicle":"Vehicle","cell line":"OCI-C5x (clear cell)","technical replicate":"1","viability, normalised (%)":48,"activity call":"active"}
{"Target gene":"TRPM7","rucaparib or vehicle":"Vehicle","cell line":"OCI-C5x (clear cell)","technical replicate":"2","viability, normalised (%)":57.4,"activity call":"active"}
{"Target gene":"TRPM7","rucaparib or vehicle":"Vehicle","cell line":"OCI-C5x (clear cell)","technical replicate":"3","viability, normalised (%)":48.9,"activity call":"active"}
{"Target gene":"TRPM7","rucaparib or vehicle":"Vehicle","cell line":"OCI-P5x (serous)","technical replicate":"1","viability, normalised (%)":90,"activity call":"inactive"}
{"Target gene":"TRPM7","rucaparib or vehicle":"Vehicle","cell line":"OCI-P5x (serous)","technical replicate":"2","viability, normalised (%)":68.3,"activity call":"active"}
{"Target gene":"TRPM7","rucaparib or vehicle":"Vehicle","cell line":"OCI-P5x (serous)","technical replicate":"3","viability, normalised (%)":78,"activity call":"active"}
{"Target gene":"BAHD1","rucaparib or vehicle":"Rucaparib","cell line":"OCI-C5x (clear cell)","technical replicate":"1","viability, normalised (%)":52.9,"activity call":"active"}
{"Target gene":"BAHD1","rucaparib or vehicle":"Rucaparib","cell line":"OCI-C5x (clear cell)","technical replicate":"2","viability, normalised (%)":47.1,"activity call":"active"}
{"Target gene":"BAHD1","rucaparib or vehicle":"Rucaparib","cell line":"OCI-C5x (clear cell)","technical replicate":"3","viability, normalised (%)":39,"activity call":"active"}
{"Target gene":"BAHD1","rucaparib or vehicle":"Rucaparib","cell line":"OCI-P5x (serous)","technical replicate":"1","viability, normalised (%)":68.8,"activity call":"active"}
{"Target gene":"BAHD1","rucaparib or vehicle":"Rucaparib","cell line":"OCI-P5x (serous)","technical replicate":"2","viability, normalised (%)":87.8,"activity call":"inactive"}
{"Target gene":"BAHD1","rucaparib or vehicle":"Rucaparib","cell line":"OCI-P5x (serous)","technical replicate":"3","viability, normalised (%)":83.8,"activity call":"inactive"}
{"Target gene":"BAHD1","rucaparib or vehicle":"Vehicle","cell line":"OCI-C5x (clear cell)","technical replicate":"1","viability, normalised (%)":32.8,"activity call":"active"}
{"Target gene":"BAHD1","rucaparib or vehicle":"Vehicle","cell line":"OCI-C5x (clear cell)","technical replicate":"2","viability, normalised (%)":47.2,"activity call":"active"}
{"Target gene":"BAHD1","rucaparib or vehicle":"Vehicle","cell line":"OCI-C5x (clear cell)","technical replicate":"3","viability, normalised (%)":44,"activity call":"active"}
{"Target gene":"BAHD1","rucaparib or vehicle":"Vehicle","cell line":"OCI-P5x (serous)","technical replicate":"1","viability, normalised (%)":76.1,"activity call":"active"}
{"Target gene":"BAHD1","rucaparib or vehicle":"Vehicle","cell line":"OCI-P5x (serous)","technical replicate":"2","viability, normalised (%)":95.7,"activity call":"inactive"}
{"Target gene":"BAHD1","rucaparib or vehicle":"Vehicle","cell line":"OCI-P5x (serous)","technical replicate":"3","viability, normalised (%)":83,"activity call":"inactive"}

Not a retest: entries from further up.
{"Target gene":"BAHD1","rucaparib or vehicle":"Rucaparib","cell line":"OCI-P5x (serous)","technical replicate":"2","viability, normalised (%)":87.8,"activity call":"inactive"}
{"Target gene":"BAHD1","rucaparib or vehicle":"Rucaparib","cell line":"OCI-P5x (serous)","technical replicate":"3","viability, normalised (%)":83.8,"activity call":"inactive"}
{"Target gene":"BAHD1","rucaparib or vehicle":"Vehicle","cell line":"OCI-C5x (clear cell)","technical replicate":"1","viability, normalised (%)":32.8,"activity call":"active"}
{"Target gene":"BAHD1","rucaparib or vehicle":"Vehicle","cell line":"OCI-C5x (clear cell)","technical replicate":"2","viability, normalised (%)":47.2,"activity call":"active"}
{"Target gene":"BAHD1","rucaparib or vehicle":"Vehicle","cell line":"OCI-C5x (clear cell)","technical replicate":"3","viability, normalised (%)":44,"activity call":"active"}
{"Target gene":"BAHD1","rucaparib or vehicle":"Vehicle","cell line":"OCI-P5x (serous)","technical replicate":"1","viability, normalised (%)":76.1,"activity call":"active"}
{"Target gene":"BAHD1","rucaparib or vehicle":"Vehicle","cell line":"OCI-P5x (serous)","technical replicate":"2","viability, normalised (%)":95.7,"activity call":"inactive"}
